PubChem BioAssay AID652272 – Drosophila RNAi Screening Center | 2013

- Purpose: 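Finding fly genes that regulate Hedgehog signal transduction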 (primary screen)
- System: Drosophila clone 8 (Cl8) cells
- Reagents: long dsRNA against Drosophila genes
- Measured: 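Plate reader light from a firefly reporter under a ptc promoter fragment that responds to Hedgehog, with Renilla light as transfection reference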
- Direction: firefly Hh reporter signal: higher = more ptc reporter light; Renilla reference signal: higher = more Renilla control light
- Call rule: 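Called a hit if the two-replicate mean z-score lies below -2 or above +3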
- Calls: active = hit: reporter lowered or raised; inactive = not a hit
The deposit covers about 21,000 reagents; below is an unselected part of those that have a named target and a result. Of all reagents, 503 (2.4%) got an active call. 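Raw plate light values, not normalised; calls rest on replicate z-scores that were not deposited; hits include reporter decreases as well as increases.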 Reagents against one gene are numbered here. Names joined by + are all predicted targets of the reagent. Reagent sequences are not shown. The record does not give: the amount of reagent, the time to read-out.

gene,reagent no.,"firefly Hh reporter signal, replicate 1","firefly Hh reporter signal, replicate 2","firefly Hh reporter signal, replicate 3","Renilla reference signal, replicate 1","Renilla reference signal, replicate 2",call
CG31279,1,50519,2.56e5,,10836,5258,inactive
CG5877,1,1.30e5,96311,,3280,2257,inactive
Cdc42,1,71137,2.61e5,,1092,11667,inactive
MED30,1,91077,46906,,3760,1570,inactive
lncRNA:CR42859,1,5.55e5,3.00e5,,25888,11825,inactive
cu,1,54636,97305,,1683,2481,inactive
cu,2,1.50e5,1.38e5,,4166,3661,inactive
apn,1,71285,78564,,2752,1970,inactive
Orco,1,79114,1.33e5,,3264,3526,inactive
CG17221,1,1.18e5,59456,,2816,5451,inactive
CG5902,1,1.31e5,65250,,4765,2305,inactive
CG30427,1,1.27e5,1.84e5,,3058,7605,inactive
CG30427,2,1.12e5,1.06e5,,4531,4214,inactive
CG30427,3,96400,39418,,2285,2388,inactive
Kif19A,1,4.09e5,67584,,2609,2609,inactive
RpS5b,1,77912,72775,,2448,2652,inactive
asRNA:CR43430 + hts,1,77541,53793,,2294,4153,inactive
PGRP-SB2,1,1.50e5,,,1911,3926,inactive
CG4853,1,1.28e5,1.07e5,,5738,4571,inactive
Or47a,1,72503,49601,,1708,3664,inactive
CAH3,1,85157,2.36e5,,2806,8624,inactive
Kdsr,1,5.29e5,88071,,3552,3552,inactive
CG43121,1,77665,55926,,3197,2485,inactive
CG14664,1,87501,1.13e5,,3491,3175,inactive
CG34280,1,54692,2.85e5,,12248,6610,inactive
CG31019,1,4.15e5,1.99e5,,22352,3729,inactive
M1BP,1,90902,63320,,4742,3012,inactive
CG7156,1,1.29e5,71853,,5079,3196,inactive
Calx,1,65492,2.33e5,,13632,5184,inactive
Calx,2,54820,2.31e5,,11300,5560,inactive
Calx,3,6.16e5,1.37e5,,33776,3980,inactive
caps,1,22643,42647,52232,3499,3584,inactive
Golgin84,1,5.01e5,95925,,23610,3123,inactive
CG31673,1,91944,80340,,3747,3264,inactive
CG30037,1,72492,35482,,1338,2688,inactive
CG12645,1,72016,1.97e5,,1688,6880,inactive
CHOp24,1,98218,1.13e5,,1373,3431,inactive
Ir11a,1,61572,1.77e5,,1020,7200,inactive
CG8915,1,1.24e5,87876,,2998,2196,inactive
CG32087,1,51468,50188,49600,4661,3399,inactive
heca,1,52404,56218,,1703,1818,inactive
Gas41,1,49445,35979,,2045,1703,inactive
CG14764,1,83366,2.07e5,,10162,9388,inactive
CG14764,2,89046,67141,,4723,3280,inactive
CG14764,3,67673,50059,,1629,4499,inactive
CG14693,1,1.03e5,1.48e5,,1981,4081,inactive
Zfrp8,1,80829,47816,,1873,4921,inactive
CG13405,1,1.03e5,46469,,3687,4148,inactive
CG13840,1,4.22e5,58729,,22491,1793,inactive
CG4554,1,55155,57184,,2284,2657,inactive
Pop4,1,38752,51069,,4490,3513,inactive
mkg-p,1,71168,51306,,4169,2073,inactive
ND-24L,1,1.26e5,,,4832,2432,inactive
BicC,1,82194,50642,,2194,5334,inactive
CG4957,1,1.48e5,69220,,3889,5707,inactive
RpS15,1,31349,19030,,1653,2263,active
CG1105,1,89274,79152,,4016,2743,inactive
Mdh1,1,1.89e5,77957,,5111,7293,inactive
CG7548,1,66753,49997,,6964,3552,inactive
CG4318,1,85866,3.00e5,,2221,11060,inactive
CG32625,1,6.98e5,1.66e5,,39216,3613,inactive
Arpc4,1,1.01e5,37414,,2999,4101,inactive
Txl,1,39420,46794,,5308,3197,inactive
CG30159,1,1.10e5,74897,,4856,3168,inactive
sca,1,68074,39269,,1808,3085,inactive
acj6,1,1.25e5,84582,,3111,2512,inactive
CG3927,1,1.25e5,87296,,2464,8544,inactive
kz,1,66311,1.53e5,,1494,6547,inactive
SmydA-6,1,82645,62448,,2681,4496,inactive
beta-PheRS,1,83045,76265,,3591,3253,inactive
betaNACtes4,1,86027,2.15e5,,2483,8816,inactive
CG31998,1,1.45e5,73348,,2710,2800,inactive
CG31998,2,73376,2.08e5,,2252,7755,inactive

Copied from the list.
Value for Arpc4 under “firefly Hh reporter signal, replicate 2”: 37414
Under “call”, SmydA-6 reads inactive
Entry for Ir11a under “Renilla reference signal, replicate 2”: 7200
CG31279, call = inactive
Under “call”, CG30427 #2 shows inactive
For “Renilla reference signal, replicate 1”, CHOp24 is entered as 1373
